Measurements: PMC7823470, “Arabidopsis Plant Natriuretic Peptide Is a Novel Interactor of Rubisco Activase” (Life, 2020)

By UniProt entry, the sequences of proteins in these tests, tags left out. Where a name states a change or a piece, a line headed by the entry shows the natural chain unless it says otherwise.
UniProt Q9ZV52: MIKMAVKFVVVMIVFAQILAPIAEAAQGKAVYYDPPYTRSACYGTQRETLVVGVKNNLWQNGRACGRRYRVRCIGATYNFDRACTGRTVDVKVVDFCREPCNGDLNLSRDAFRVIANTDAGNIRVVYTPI

Molecular target: T1, purified recombinant N-terminally His-tagged rubisco activase (rRCA) (Arabidopsis thaliana) (UniProt P10896)
T1 sequence: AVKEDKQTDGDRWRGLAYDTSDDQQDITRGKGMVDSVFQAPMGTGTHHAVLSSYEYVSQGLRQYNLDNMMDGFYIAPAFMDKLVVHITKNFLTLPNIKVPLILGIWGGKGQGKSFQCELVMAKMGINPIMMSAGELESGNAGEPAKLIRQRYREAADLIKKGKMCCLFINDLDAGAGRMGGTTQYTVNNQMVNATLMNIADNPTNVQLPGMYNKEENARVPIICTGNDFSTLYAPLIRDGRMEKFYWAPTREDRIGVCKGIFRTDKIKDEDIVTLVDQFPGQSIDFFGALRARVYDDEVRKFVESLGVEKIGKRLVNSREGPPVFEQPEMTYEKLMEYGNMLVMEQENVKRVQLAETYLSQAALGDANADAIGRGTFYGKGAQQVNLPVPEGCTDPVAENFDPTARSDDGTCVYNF
Test: SPR; rRCA immobilised by amine coupling on a CM5 chip, rAtPNP-A as analyte, reference surface blank activated; Biacore T100, 20 °C; both purified

binding: binds
Substance: purified recombinant N-terminally His-tagged AtPNP-A (rAtPNP-A) (from UniProt Q9ZV52)

No constants are given. Whether binding was seen depends on the method and setting. A result given as binding can be weak or reduced; the word gives no strength. Tags and fused reporters may be left off the sequences shown.
